Measured values from article PMC8329197, “Compounds targeting OSBPL7 increase ABCA1-dependent cholesterol efflux preserving kidney function in two models of kidney disease” (Nature Communications, 2021).
No constants are given. Whether binding was seen depends on the method and setting. In cells and extracts the contact can be indirect. Where a sequence is shown, tags or fusion partners need not be part of it.

Chains of the proteins cited; added tags and fusions are not shown.
UniProt O95477: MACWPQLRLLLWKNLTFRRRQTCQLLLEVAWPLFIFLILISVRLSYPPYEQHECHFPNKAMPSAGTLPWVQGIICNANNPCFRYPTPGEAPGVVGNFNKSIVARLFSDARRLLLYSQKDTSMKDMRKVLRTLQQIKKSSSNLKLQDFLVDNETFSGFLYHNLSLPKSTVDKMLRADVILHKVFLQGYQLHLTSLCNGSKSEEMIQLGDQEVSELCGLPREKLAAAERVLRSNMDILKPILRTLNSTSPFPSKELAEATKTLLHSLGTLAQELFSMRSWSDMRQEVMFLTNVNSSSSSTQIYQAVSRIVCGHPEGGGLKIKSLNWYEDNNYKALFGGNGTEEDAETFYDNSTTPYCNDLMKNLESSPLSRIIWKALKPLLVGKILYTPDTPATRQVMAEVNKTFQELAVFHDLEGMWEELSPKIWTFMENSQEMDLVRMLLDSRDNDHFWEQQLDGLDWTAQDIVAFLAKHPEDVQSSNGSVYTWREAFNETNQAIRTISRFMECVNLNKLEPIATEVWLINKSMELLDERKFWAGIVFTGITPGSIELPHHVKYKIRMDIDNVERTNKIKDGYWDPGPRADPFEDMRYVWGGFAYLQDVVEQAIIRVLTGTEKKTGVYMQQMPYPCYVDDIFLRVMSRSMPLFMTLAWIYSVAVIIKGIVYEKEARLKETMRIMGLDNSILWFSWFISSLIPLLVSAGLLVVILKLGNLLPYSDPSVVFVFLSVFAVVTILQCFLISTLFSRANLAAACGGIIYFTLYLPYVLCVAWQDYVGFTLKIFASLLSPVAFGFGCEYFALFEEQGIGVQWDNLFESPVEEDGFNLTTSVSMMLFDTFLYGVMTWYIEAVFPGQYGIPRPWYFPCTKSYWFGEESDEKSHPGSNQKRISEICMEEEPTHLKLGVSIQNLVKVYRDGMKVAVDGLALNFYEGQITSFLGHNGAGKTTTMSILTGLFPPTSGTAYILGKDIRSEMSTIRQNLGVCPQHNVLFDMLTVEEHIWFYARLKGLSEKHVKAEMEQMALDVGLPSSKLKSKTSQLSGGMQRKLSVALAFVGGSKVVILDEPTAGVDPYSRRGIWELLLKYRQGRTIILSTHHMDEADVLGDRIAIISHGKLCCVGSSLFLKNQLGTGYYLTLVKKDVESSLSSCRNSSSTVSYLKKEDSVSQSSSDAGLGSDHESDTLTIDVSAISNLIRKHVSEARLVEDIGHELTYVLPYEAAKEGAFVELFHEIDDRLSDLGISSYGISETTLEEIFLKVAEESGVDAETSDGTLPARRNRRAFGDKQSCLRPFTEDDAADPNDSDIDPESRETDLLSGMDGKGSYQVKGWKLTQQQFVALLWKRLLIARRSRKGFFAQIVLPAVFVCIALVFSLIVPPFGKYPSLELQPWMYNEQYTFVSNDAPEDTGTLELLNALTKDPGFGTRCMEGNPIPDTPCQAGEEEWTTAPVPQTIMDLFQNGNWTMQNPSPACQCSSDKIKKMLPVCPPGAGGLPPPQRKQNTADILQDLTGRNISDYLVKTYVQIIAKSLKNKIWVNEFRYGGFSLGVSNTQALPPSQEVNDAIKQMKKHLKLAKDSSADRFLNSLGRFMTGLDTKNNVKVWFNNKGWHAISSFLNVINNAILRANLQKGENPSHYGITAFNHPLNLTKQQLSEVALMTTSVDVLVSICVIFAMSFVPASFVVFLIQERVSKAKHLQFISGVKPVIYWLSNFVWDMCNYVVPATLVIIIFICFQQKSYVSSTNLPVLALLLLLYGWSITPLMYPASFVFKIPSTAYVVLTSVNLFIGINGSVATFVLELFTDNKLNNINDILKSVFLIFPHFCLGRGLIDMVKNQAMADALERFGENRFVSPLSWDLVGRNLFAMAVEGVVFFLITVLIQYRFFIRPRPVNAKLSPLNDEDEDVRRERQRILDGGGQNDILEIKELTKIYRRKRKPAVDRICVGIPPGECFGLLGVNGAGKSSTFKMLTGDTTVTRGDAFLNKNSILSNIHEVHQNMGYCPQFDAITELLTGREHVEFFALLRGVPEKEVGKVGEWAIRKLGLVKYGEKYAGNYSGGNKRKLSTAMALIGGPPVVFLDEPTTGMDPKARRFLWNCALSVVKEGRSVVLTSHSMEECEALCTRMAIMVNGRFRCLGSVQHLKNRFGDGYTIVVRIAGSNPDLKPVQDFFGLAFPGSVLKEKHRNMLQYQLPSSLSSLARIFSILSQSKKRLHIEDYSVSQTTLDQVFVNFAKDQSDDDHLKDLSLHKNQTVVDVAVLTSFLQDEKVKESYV

Molecular target: ABCA1-FLAG (ATP-binding cassette transporter ABCA1, FLAG-tagged) (UniProt O95477)
Assay: co-IP; HEK293 cells transiently co-transfected with ABCA1-Flag + OSBPL7-V5; lysed 48 h later in 1% Triton X-100, 50 mM Tris-Cl pH 7.0, 150 mM NaCl with protease inhibitors; anti-Flag M2 affinity gel overnight at 4 °C, 5 washes; western blot for ABCA1 and OSBPL7-V5

binding: no binding
B1: OSBPL7-V5 (Oxysterol Binding Protein Like 7, V5-tagged) (protein, UniProt Q9BZF2 1-842)
chain: MDFQERDPPFLPESAQSSKPSSAQQASELWEVVEEPRVRLGTEGVMPERQEGHLLKKRKWPLKGWHKRYFVLEDGILHYATTRQDITKGKLHGSIDVRLSVMSINKKAQRIDLDTEDNIYHLKIKSQDLFQSWVAQLRAHRLAHRLDMPRGSLPSTAHRKVPGAQLPTAATASALPGLGPREKVSSWLRDSDGLDRCSHELSECQGKLQELHRLLQSLESLHRIPSAPVIPTHQASVTTERPKKGKRTSRMWCTQSFAKDDTIGRVGRLHGSVPNLSRYLESRDSSGTRGLPPTDYAHLQRSFWALAQKVHSSLSSVLAALTMERDQLRDMHQGSELSRMGVSEASTGQRRLHSLSTSSDTTADSFSSLNPEEQEALYMKGRELTPQLSQTSILSLADSHTEFFDACEVLLSASSSENEGSEEEESCTSEITTSLSEEMLDLRGAERCQKGGCVPGRPMGPPRRRCLPAASGPGADVSLWNILRNNIGKDLSKVSMPVQLNEPLNTLQRLCEELEYSSLLDQASRIADPCERMVYIAAFAVSAYSSTYHRAGCKPFNPVLGETYECERPDRGFRFISEQVSHHPPISACHAESENFAFWQDMKWKNKFWGKSLEIVPVGTVNVSLPRFGDHFEWNKVTSCIHNVLSGQRWIEHYGEVLIRNTQDSSCHCKITFCKAKYWSSNVHEVQGAVLSRSGRVLHRLFGKWHEGLYRGPTPGGQCIWKPNSMPPDHERNFGFTQFALELNELTAELKRSLPSTDTRLRPDQRYLEEGNIQAAEAQKRRIEQLQRDRRKVMEENNIVHQARFFRRQTDSSGKEWWVTNNTYWRLRAEPGYGNMDGAVLW
